PubChem BioAssay AID1671195 | Yale University, 2021

Assay: 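Genes whose knockdown alters LDL uptake in liver cancer cells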 (primary screen)
Cell system: human Huh7 hepatoma cells
Knock-down reagent: siRNA pool against human genes, 18 nM
Duration: about 2 to 2.5 days of knockdown, then 8 h LDL uptake
Conditions: DiI-labelled LDL at 30 µg/ml for 8 h, in lipoprotein-deficient serum medium
Read-out: 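Per-cell DiI-LDL intensity by automated imaging; well means scaled to the plate median and given as a robust z-score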
Reading the numbers: robust z-score: higher = more LDL uptake after knockdown
Call rule: 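Active when two or more replicates show a robust z-score above 2 or below -2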
This is one part, drawn at random, of about 22,000 deposited reagents. Of all reagents, about 1,510 (6.9%) are marked active. 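Active includes knockdowns raising or lowering LDL uptake; positive z-scores mean more uptake, negative mean less.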 The numbers tell different reagents against one gene apart. Reagent sequences are not shown.

| gene | pool no. | robust z-score, replicate 1 | robust z-score, replicate 2 | robust z-score, replicate 3 | activity call |
| --- | --- | --- | --- | --- | --- |
| TMEM191A | 1 | 3.05 | 3.9 | 3.14 | active |
| ACADVL | 1 | -0.961 | -1.32 | -1.18 | inactive |
| ZFPL1 | 1 | -0.355 | -0.0686 | -0.157 | inactive |
| LOC442651 (retired record) | 1 | 0.434 | 0.129 | 0.0459 | inactive |
| OR10A4 | 1 | -0.811 | -0.559 | -0.668 | inactive |
| TULP3 | 1 | -1.67 | -1.63 | -1.74 | inactive |
| RNF135 | 1 | 0.291 | 2.49 | 1.77 | inactive |
| NOL4L-DT | 1 | 1.08 | -0.0847 | 1.95 | inactive |
| UBAC2 | 1 | 0.932 | -0.153 | 0.263 | inactive |
| TMEM132D | 1 | 0.816 | 1.03 | 0.852 | inactive |
| WDR26 | 1 | -1.27 | -1.56 | -1.52 | inactive |
| CXADRP3 | 1 | 0.263 | 0.835 | 0.581 | inactive |
| LOC440064 (retired record) | 1 | 2.23 | 1.64 | 1.43 | inactive |
| SLC25A33 | 1 | 0.404 | 0.853 | 0.776 | inactive |
| OR5T2 | 1 | 1.82 | 2 | 1.56 | inactive |
| SHC4 | 1 | 0.943 | 0.153 | 0.223 | inactive |
| LOC400050 (retired record) | 1 | 0.454 | 0.0881 | 0.375 | inactive |
| CBLIF | 1 | 0.929 | 2.74 | 1.57 | inactive |
| TNPO2 | 1 | 0.27 | 0.729 | -2.48 | inactive |
| CDK2AP2P3 | 1 | -1.09 | -0.514 | -0.639 | inactive |
| MRI1 | 1 | 1.75 | 0.89 | 0.841 | inactive |
| RAB22A | 1 | 1.24 | -0.868 | -0.327 | inactive |
| CFAP58 | 1 | 0.339 | 1.42 | 0.525 | inactive |
| TSHZ1 | 1 | 0.628 | 0.747 | 0.199 | inactive |
| LDOC1 | 1 | -1.08 | -0.666 | 0.392 | inactive |
| ACAD8 | 1 | 1.46 | 1.02 | 1.55 | inactive |
| LOC441111 (retired record) | 1 | 0.637 | 0.2 | 0.613 | inactive |
| LOC441874 (retired record) | 1 | -0.0593 | -0.246 | 0.0462 | inactive |
| DIRC1 | 1 | -0.259 | 0.81 | -0.062 | inactive |
| LOC389329 (retired record) | 1 | -1.32 | -1.24 | -1.24 | inactive |
| YWHAE | 1 | 0.963 | 0.356 | 0.837 | inactive |
| ADSL | 1 | 0.339 | 1.29 | 0.365 | inactive |
| LINC02762 | 1 | -0.479 | 0.0274 | -0.55 | inactive |
| AMMECR1L | 1 | -1.9 | -1.08 | -1.77 | inactive |
| USF2 | 1 | 0.252 | -0.0733 | -0.241 | inactive |
| MAGEB4 | 1 | 1.2 | 0.804 | 0.93 | inactive |

Next part (6 carried over from the part before).
| gene | pool no. | robust z-score, replicate 1 | robust z-score, replicate 2 | robust z-score, replicate 3 | activity call |
| --- | --- | --- | --- | --- | --- |
| YWHAE | 1 | 0.963 | 0.356 | 0.837 | inactive |
| ADSL | 1 | 0.339 | 1.29 | 0.365 | inactive |
| LINC02762 | 1 | -0.479 | 0.0274 | -0.55 | inactive |
| AMMECR1L | 1 | -1.9 | -1.08 | -1.77 | inactive |
| USF2 | 1 | 0.252 | -0.0733 | -0.241 | inactive |
| MAGEB4 | 1 | 1.2 | 0.804 | 0.93 | inactive |
| AGFG1 | 1 | 0.457 | 0.694 | 1.25 | inactive |
| RPL23 | 1 | -0.718 | -1.09 | -0.238 | inactive |
| LOC440901 (retired record) | 1 | -0.82 | -1.15 | -0.977 | inactive |
| VPS33B | 1 | -1.23 | -1.29 | -0.221 | inactive |
| IGHV3OR16-8 | 1 | 1.62 | 2.75 | 2.78 | active |
| FANCB | 1 | 0.113 | 1.52 | 0.752 | inactive |
| KBTBD6 | 1 | -0.865 | -0.415 | -0.569 | inactive |
| GRIP1 | 1 | -0.602 | 0.735 | -0.667 | inactive |
| ACHE | 1 | -2.68 | 0.425 | -0.188 | inactive |
| POMT2 | 1 | 0.545 | 0.324 | 0.704 | inactive |
| TARDBPP2 | 1 | -0.312 | -0.703 | -0.257 | inactive |
| LDLRAD1 | 1 | 0.795 | 1.06 | 0.932 | inactive |
| EIF1AX | 1 | -1.54 | -1.2 | -1.19 | inactive |
| FNDC7 | 1 | -0.407 | -0.514 | -0.447 | inactive |
| WSCD2 | 1 | -0.0346 | -1.62 | -1 | inactive |
| GCLC | 1 | -0.0305 | 1.35 | 1.41 | inactive |
| TRIM64 | 1 | 0.275 | 0.786 | 0.891 | inactive |
| LCE3E | 1 | -0.0946 | -0.28 | -0.468 | inactive |
| DCLK2 | 1 | 2.44 | 1.4 | 2.01 | active |
| CASTOR3P | 1 | 0.52 | 0.153 | 0.552 | inactive |
| CYBRD1 | 1 | -0.0906 | -0.401 | -0.676 | inactive |
| CALHM4 | 1 | 1.24 | 0.761 | 1.31 | inactive |
| ZNF493 | 1 | -0.124 | 1.39 | 1.35 | inactive |
| ZNF493 | 2 | -0.0506 | -0.667 | -0.122 | inactive |
| SERPINB6 | 1 | -0.25 | -1.06 | -0.503 | inactive |
| NENF | 1 | -0.819 | 0.749 | -0.406 | inactive |
| LOC400197 (retired record) | 1 | -1.09 | -0.298 | -0.425 | inactive |
| CRIPAK (retired record) | 1 | 0.147 | 0.0659 | 0.235 | inactive |
| TCL1A | 1 | -1.53 | -0.363 | 0.0707 | inactive |
| TMIE | 1 | 0.116 | 0.597 | 0.868 | inactive |
| TFF3 | 1 | -1.12 | -0.34 | 0.0287 | inactive |
| OR7A5 | 1 | 0.162 | 1.06 | -1.8 | inactive |
| LOC130839 (retired record) | 1 | 0.207 | 0.386 | -0.221 | inactive |
| KCNN4 | 1 | 4.46 | 3.42 | 4.52 | active |
| TKFC | 1 | -0.753 | -0.426 | -1.25 | inactive |
| H2AC20 | 1 | -0.592 | -2.08 | -1.71 | inactive |
| LINC00319 | 1 | 1.88 | 1.96 | 1.26 | inactive |
| LOC440610 (retired record) | 1 | 0.734 | 0.341 | 0.319 | inactive |
| LINC00544 | 1 | 0.578 | 1.12 | 0.844 | inactive |
| RAB12 | 1 | 1.48 | 0.225 | 0.303 | inactive |
| NECTIN2 | 1 | 1.88 | 1.61 | 1.59 | inactive |
| OXT | 1 | 0.181 | -0.287 | 0.26 | inactive |
| LOC390258 (retired record) | 1 | -1.41 | -1.06 | -1.31 | inactive |
| IGFL4 | 1 | -0.665 | -0.401 | -0.358 | inactive |
| IGFL4 | 2 | -1.75 | -2.07 | -1.49 | inactive |
| ADPRHL1 | 1 | 0.568 | 0.828 | 0.65 | inactive |
| ADPRHL1 | 2 | 0.319 | 0.522 | 0.961 | inactive |
| DEFB126 | 1 | -1.05 | -0.767 | -1.27 | inactive |
| PSTPIP1 | 1 | 0.553 | 0.481 | -0.308 | inactive |
| BPIFA4P | 1 | -0.796 | -0.695 | -0.747 | inactive |
| FAM193B | 1 | 0.71 | 0.118 | 0.163 | inactive |
